Reference: publication PMC7026642, “Secondary nucleotide messenger c-di-GMP exerts a global control on natural product biosynthesis in streptomycetes” (Nucleic Acids Research, 2020)
Where a protein sequence is shown, tags need not be part of it.

Legend:
[1] = test system: T1, BldDgh (Streptomyces ghanaensis); assay: EMSA; settings: 1 uM c-di-GMP, 10 mM Tris pH 7.5, 1 mM EDTA, 5% glycerol, 10 mM NaCl, 1 mM MgCl2, 1 ug poly(dI-dC), 20 fmol probe in 15 ul, 37 C, 25 min, recombinant protein, label: 5'-33P, probe letters rebuilt from the primers and the genome
T1 sequence (looked up): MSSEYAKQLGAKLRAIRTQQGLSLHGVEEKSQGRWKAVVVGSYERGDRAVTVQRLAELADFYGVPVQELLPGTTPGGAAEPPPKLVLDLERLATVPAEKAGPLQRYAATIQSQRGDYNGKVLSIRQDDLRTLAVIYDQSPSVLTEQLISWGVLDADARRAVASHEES

[2] = test system: T1, BldDgh (Streptomyces ghanaensis); assay: competition with a labelled probe; settings: unlabeled wblAghp 10-200x competes, 0.75 uM BldDgh, 1.5 uM c-di-GMP; 10 mM Tris pH 7.5, 1 mM EDTA, 5% glycerol, 10 mM NaCl, 1 mM MgCl2, 1 ug poly(dI-dC), 1 uM c-di-GMP, 20 fmol probe in 15 ul, 37 C, 25 min; recombinant protein; residues 1-167; protein details: N-terminal His6 (pET28a); label: 5'-33P; probe letters rebuilt from the primers and the genome

Sequence	binding result ([1]; residues 1-167, protein details: N-terminal His6 (pET28a))	binding result ([1]; 0.75 uM BldDgh, c-di-GMP titration 0.5-3 uM, binding significantly improved by c-di-GMP, residues 1-167, protein details: N-terminal His6 (pET28a))	binding result ([1]; one complex, residues 1-167, protein details: N-terminal His6 (pET28a))	binding result [2]
CGAGACCTCGGAGTGAATCAAGGGTTGTCTTCGGCGCCTTTCCCGATGGTGCCCCGGCAGCTTCCCGCCACTGAATCACAGCGCGCTGCTCACTCGGTACACAGGGTCAACAATTCCCGCCCCTTGTGACTCAAGTCACAGCCAAACGTGAACAATTACGCGGCCTTTCCAGAGTTTTCCGTGCATACGCCGAACGCGTCCTTCACGGCGGTTGCGCACGGTTCGCGCACGGGTCGGCCGCTGGTCCTAGGTCCTCGCTCGGGCCGGGGCCCGATGCGGCGGGTGTGAAGCGGAGATTAGCGTTTCCGGTGTGCCGAACACTCCAGCCACCCCCTCCGCGATCACCTCCGTGCCCGCCGCCCGGCATGCTGAGGGGGTGAGCAACGACGAGTTCCGCGCCGCCATGTCCCGGCTGGCCTCCGGTGTGGTCCTGGTGACCGCGCAGGAGCCGCCGCTGGACCCGGACGACCCCCGGGCGCCGGCCGGCGAGGACGCCGGCATGACGGCGACCGCGTTCCTGTCGGTCTCCCTGGA (double strand) [cdgBgh promoter (cdgBghp)]	binds	–	–	–
GGGCCACGTATCAATACGTCCGGCGACCCCGAATCGTTCCGGGCCCTCTCGACTTTCTCGACCTGGGTGGGTGGGTCCGTGTCCGGATCCGCCTCGTGTGTCACGTGGTGCCCGTTGTGACGCAACGGAACTGACCTGGAATGCCGGGATTGTCGCGCATGTCGTCACCTCACTCCCCCGGGTGATCTGCCGCTTACCCATAGTCCGTTCGGACCATTCAAGATTGGGCCCGCTGGGGGTGTTGCGCTGTGTCCACCTTCCGTAACGTCCTCAACTGGCGGCGGTGAATATGCCGCTGCCGCCGTGGGGGAGCCTCGATTCGGGAGAGGACGGCGCCGGTATGGGCTGGGTTACCGACTGGAGTGCGCAGGCTGCCTGCCGCACTACCGATCCGGATGAA (double strand) [wblAgh promoter (wblAghp)]	–	binds	binds	binds
